Test systems include M6PRBP1 (human); MAGEA4 (human); MAN2C1 (human); MANSC1 (human); MAP4 (human); MAPK9 (human); MARVELD2 (human); MASP2 (human); MAT1A (human); MAT2B (human); MB (human); MCFD2 (human); MCM2 (human); MDP-1 (human); MED21 (human).
Holding throughout (assay): protein microarray (ProtoArray v5.0), streptavidin-Alexa Fluor 647
Holding throughout (conditions): 3'-biotin; 20 mM Tris (pH 7.5), 5 mM MgCl2, 100 mM KCl, 0.1% Tween-20, A/T-rich and random oligonucleotide blockers; temperature not stated; high values mean tight binding

Experiment [1] has as its system Linker for activation of T-cells family member 1 (human).
In experiment [2] the test system is LisH domain-containing protein ARMC9 (human).
In experiment [3] the test system is Ly6/PLAUR domain-containing protein 5 (human).
Another experiment concerns the target T1, MAGEH1 (UniProt Q9H213).
T1 sequence: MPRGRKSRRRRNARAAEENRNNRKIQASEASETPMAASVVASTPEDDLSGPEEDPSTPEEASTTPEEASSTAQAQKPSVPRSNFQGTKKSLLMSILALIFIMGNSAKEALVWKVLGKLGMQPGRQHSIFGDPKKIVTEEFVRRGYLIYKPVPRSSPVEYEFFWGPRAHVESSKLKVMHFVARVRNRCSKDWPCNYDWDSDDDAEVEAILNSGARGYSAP

Experiment [4] relates to MAP3K12-binding inhibitory protein 1 (human).

“And” between values parts separate entries of the source, which are not always exact repeats. Equal entries are not always repeated. The list shows a part of the results. For some assays here: Construct or isoform of the protein are uncertain.

Regarding “GGGGACAGGGGTATGGGGAGGGG [G4-3 biotinylated (CtG)]”, the binding signal in experiment [1] is -0.336 z-score; in [2], -0.341 z-score; in experiment [3], -0.33 z-score; with M6PRBP1 (human) it was -0.344 z-score; with MAGEA4 (human) it was -0.33 z-score; in the experiment with MAGEH1, 4.47 z-score. Besides, the binding signal is -0.323 z-score in the experiment on MAN2C1 (human); -0.33 z-score in the experiment with MANSC1 (human); -0.281 z-score in experiment [4]; -0.316 z-score in the experiment with MAP4 (human); -0.33 z-score in the experiment with MAPK9 (human); -0.333 z-score in the experiment with MARVELD2 (human). Moreover, the binding signal in the experiment on MASP2 (human) was -0.332 z-score; in the experiment on MAT1A (human), -0.326 z-score; in the experiment with MAT2B (human) it was -0.318 z-score; with MB (human), -0.33 z-score; in the experiment on MCFD2 (human), -0.317 z-score; in the experiment with MCM2 (human), -0.347 z-score and -0.33 z-score. Moreover, the binding signal in the experiment on MDP-1 (human) is -0.334 z-score and -0.329 z-score; with MED21 (human), -0.341 z-score.
